{"source": "paper doi:10.1101/2021.01.07.425795", "about": "(bioRxiv, 2021)", "binders": {"B1": {"name": "His6-ECSIT (natural protein, human, UniProt Q9BQ95 49-431, looked up)", "chain": "SSEQSLVPSPPEPRQRPTKALVPFEDLFGQAPGGERDKASFLQTVQKFAEHSVRKRGHIDFIYLALRKMREYGVERDLAVYNQLLNIFPKEVFRPRNIIQRIFVHYPRQQECGIAVLEQMENHGVMPNKETEFLLIQIFGRKSYPMLKLVRLKLWFPRFMNVNPFPVPRDLPQDPVELAMFGLRHMEPDLSARVTIYQVPLPKDSTGAADPPQPHIVGIQSPDQQAALARHNPARPVFVEGPFSLWLRNKCVYYHILRADLLPPEEREVEETPEEWNLYYPMQLDLEYVRSGWDNYEFDINEVEEGPVFAMCMAGAHDQATMAKWIQGLQETNPTLAQIPVVFRLAGSTRELQTSSAGLEEPPLPEDHQEEDDNLQRQQQGQS"}, "B2": {"name": "His6-SMT3-NDUFAF1 (natural protein, human, UniProt Q9Y375 25-327, looked up)", "chain": "YPFLGIRFAEYSSSLQKPVASPGKASSQRKTEGDLQGDHQKEVALDITSSEEKPDVSFDKAIRDEAIYHFRLLKDEIVDHWRGPEGHPLHEVLLEQAKVVWQFRGKEDLDKWTVTSDKTIGGRSEVFLKMGKNNQSALLYGTLSSEAPQDGESTRSGYCAMISRIPRGAFERKMSYDWSQFNTLYLRVRGDGRPWMVNIKEDTDFFQRTNQMYSYFMFTRGGPYWQEVKIPFSKFFFSNRGRIRDVQHELPLDKISSIGFTLADKVDGPFFLEIDFIGVFTDPAHTEEFAYENSPELNPRLFK"}}, "key": {"Loop12-ACAD9 (human)": {"target": "T1, Loop12-ACAD9 (human) (UniProt Q9H845)", "T1 sequence": "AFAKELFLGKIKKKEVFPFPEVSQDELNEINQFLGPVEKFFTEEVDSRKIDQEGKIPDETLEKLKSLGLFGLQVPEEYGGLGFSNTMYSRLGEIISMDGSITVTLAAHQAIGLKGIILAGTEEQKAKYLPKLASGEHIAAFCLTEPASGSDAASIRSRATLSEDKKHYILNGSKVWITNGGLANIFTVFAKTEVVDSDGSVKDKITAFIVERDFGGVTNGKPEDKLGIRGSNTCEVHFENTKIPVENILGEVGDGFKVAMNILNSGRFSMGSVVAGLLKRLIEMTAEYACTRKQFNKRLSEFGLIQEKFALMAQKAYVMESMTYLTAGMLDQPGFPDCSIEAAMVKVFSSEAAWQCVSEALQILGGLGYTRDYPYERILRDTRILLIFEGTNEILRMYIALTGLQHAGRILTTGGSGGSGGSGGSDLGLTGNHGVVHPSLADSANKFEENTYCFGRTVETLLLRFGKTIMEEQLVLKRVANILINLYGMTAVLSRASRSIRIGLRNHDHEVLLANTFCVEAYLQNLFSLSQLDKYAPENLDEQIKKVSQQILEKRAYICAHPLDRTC", "assay": "SEC"}, "[1]": {"target": "His6-SMT3-NDUFAF1 (human) (UniProt Q9Y375)", "assay": "SEC"}, "[2]": {"target": "T2, ACAD9-His6 (human), Q9H845", "T2 chain": "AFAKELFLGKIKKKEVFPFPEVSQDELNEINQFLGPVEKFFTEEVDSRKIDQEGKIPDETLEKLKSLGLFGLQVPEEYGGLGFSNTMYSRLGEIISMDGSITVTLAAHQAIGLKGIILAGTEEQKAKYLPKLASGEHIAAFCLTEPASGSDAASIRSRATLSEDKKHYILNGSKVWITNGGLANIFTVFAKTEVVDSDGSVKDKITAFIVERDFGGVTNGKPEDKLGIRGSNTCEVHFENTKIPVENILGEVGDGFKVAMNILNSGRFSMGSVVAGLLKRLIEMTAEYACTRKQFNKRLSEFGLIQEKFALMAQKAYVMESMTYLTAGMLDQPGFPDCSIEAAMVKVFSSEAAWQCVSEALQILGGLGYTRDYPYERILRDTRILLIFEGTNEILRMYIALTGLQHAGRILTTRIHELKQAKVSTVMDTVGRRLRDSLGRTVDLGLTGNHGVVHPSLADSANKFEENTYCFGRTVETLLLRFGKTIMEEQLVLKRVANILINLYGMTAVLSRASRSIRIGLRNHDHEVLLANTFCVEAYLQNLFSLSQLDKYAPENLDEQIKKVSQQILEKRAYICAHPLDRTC", "assay": "pull-down", "conditions": "remark: other sources report otherwise"}}, "note": "Results are given in words; binding and its absence hold for the method and conditions named. Some entries that bind do so weakly or less than the wild type. For part of these data: Sequences can lack the tags named with a protein.", "data": [{"binder": "B1", "values": [{"measurement": "binding", "setting": "Loop12-ACAD9 (human)", "result": "binds"}]}, {"binder": "B2", "values": [{"measurement": "binding", "setting": "[1]", "result": "no binding"}, {"measurement": "binding", "setting": "[2]", "result": "no binding"}]}]}
